Assay results published in article PMC3349726.
These are yes or no findings as the source states them, for the method shown. For part of these data: Binding calls can cover weak binding; strength is not graded here. For part of these data: Where a sequence is shown, tags or fusion partners need not be part of it. For part of these data: In cells and extracts the contact can be indirect.

How the values were obtained:
[1] = molecular target: N-HRB1 (N-terminal half of HRB1 fused to the GAL4 DNA binding domain) (Arabidopsis thaliana); experiment: two-hybrid; quantitative yeast two-hybrid assay (beta-galactosidase activity); baits in pGBKT7, preys in pGADT7; transformants selected on SD medium lacking Trp and Leu
[2] = molecular target: GAL4 DNA binding domain alone (GBD); experiment: pull-down; in vitro immuno-precipitation: GBD or GBD:HRB1 from E. coli total extract captured with anti-GAL4 BD antibody on protein A/G agarose and washed, then incubated with in vitro translated 35S-labelled PP7 at 4 C for 2 hours; 1x PBS pH 7.5, 0.1% NP40; autoradiography; only the target …

| binding [1] | binding [2] | Binder |
| --- | --- | --- |
| binds |  | AD-PP7 (full-length Protein Phosphatase 7 fused to the GAL4 activation domain) (enzyme, UniProt Q9FN02 1-413) METVPPSPITWPDGGALTNDWVHGLMSCFEWSSWNLPPSQLPSLLPVNVFDSLVLTAHKILHKERNCVHIDDLDSVSNVVVVGDIHGQLHDLLFLLKDTGFPCQNRCYVFNGDYVDRGAWGLETFLVLLSWKVLMPDRVYLLRGNHESKYCTSMYGFEKEVLTKYGDKGKHVYRKCLGCFEGLPLASIISGRVYTAHGGLFRSPVLPKRTTRGKKNRRVVLLEPEPSSMKLGTLDELMQARRSVLDPPWEGSNLIPGDVLWSDPSMTPGLSPNEQRGIGLLWGPDCTEDFLKKYELKLIIRSHEGPDAREKRTGLGGMDNGYTIDHNVESGKLITIFSAPDYPQFQATEERYKNKGAYIILQAPDFSDPQFHSFEAVKPRPKAHPYYDFENVIDSDDEMDKSAMDTNNEQPNS |
| binds |  | PP7m (PP7 with a D to A change at amino acid position 116, fused to the GAL4 activation domain) (enzyme, UniProt Q9FN02 1-413) METVPPSPITWPDGGALTNDWVHGLMSCFEWSSWNLPPSQLPSLLPVNVFDSLVLTAHKILHKERNCVHIDDLDSVSNVVVVGDIHGQLHDLLFLLKDTGFPCQNRCYVFNGDYVARGAWGLETFLVLLSWKVLMPDRVYLLRGNHESKYCTSMYGFEKEVLTKYGDKGKHVYRKCLGCFEGLPLASIISGRVYTAHGGLFRSPVLPKRTTRGKKNRRVVLLEPEPSSMKLGTLDELMQARRSVLDPPWEGSNLIPGDVLWSDPSMTPGLSPNEQRGIGLLWGPDCTEDFLKKYELKLIIRSHEGPDAREKRTGLGGMDNGYTIDHNVESGKLITIFSAPDYPQFQATEERYKNKGAYIILQAPDFSDPQFHSFEAVKPRPKAHPYYDFENVIDSDDEMDKSAMDTNNEQPNS |
|  | no binding | PP7 produced in a TnT in vitro transcription and translation system (enzyme, UniProt Q9FN02 1-413, radiolabeled with 35S-methionine) METVPPSPITWPDGGALTNDWVHGLMSCFEWSSWNLPPSQLPSLLPVNVFDSLVLTAHKILHKERNCVHIDDLDSVSNVVVVGDIHGQLHDLLFLLKDTGFPCQNRCYVFNGDYVDRGAWGLETFLVLLSWKVLMPDRVYLLRGNHESKYCTSMYGFEKEVLTKYGDKGKHVYRKCLGCFEGLPLASIISGRVYTAHGGLFRSPVLPKRTTRGKKNRRVVLLEPEPSSMKLGTLDELMQARRSVLDPPWEGSNLIPGDVLWSDPSMTPGLSPNEQRGIGLLWGPDCTEDFLKKYELKLIIRSHEGPDAREKRTGLGGMDNGYTIDHNVESGKLITIFSAPDYPQFQATEERYKNKGAYIILQAPDFSDPQFHSFEAVKPRPKAHPYYDFENVIDSDDEMDKSAMDTNNEQPNS |
